These are yes or no findings as the source states them, for the method shown. Some results given as binding are weak or reduced against the parent protein; the word gives no strength.
T1: Ubc12 (UniProt P61081 1-183)
T1 construct: also called E2; source: expressed and purified as previously reported [33]
T1 sequence (looked up): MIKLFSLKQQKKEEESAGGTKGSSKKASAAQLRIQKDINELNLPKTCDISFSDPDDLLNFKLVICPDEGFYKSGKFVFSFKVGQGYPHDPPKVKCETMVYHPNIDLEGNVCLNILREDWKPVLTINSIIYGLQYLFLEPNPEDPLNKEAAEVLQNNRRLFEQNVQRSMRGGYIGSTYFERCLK

By UniProt entry, the sequences of proteins in these tests, tags left out. Where a name states a change or a piece, a line headed by the entry shows the natural chain unless it says otherwise.
UniProt Q13564: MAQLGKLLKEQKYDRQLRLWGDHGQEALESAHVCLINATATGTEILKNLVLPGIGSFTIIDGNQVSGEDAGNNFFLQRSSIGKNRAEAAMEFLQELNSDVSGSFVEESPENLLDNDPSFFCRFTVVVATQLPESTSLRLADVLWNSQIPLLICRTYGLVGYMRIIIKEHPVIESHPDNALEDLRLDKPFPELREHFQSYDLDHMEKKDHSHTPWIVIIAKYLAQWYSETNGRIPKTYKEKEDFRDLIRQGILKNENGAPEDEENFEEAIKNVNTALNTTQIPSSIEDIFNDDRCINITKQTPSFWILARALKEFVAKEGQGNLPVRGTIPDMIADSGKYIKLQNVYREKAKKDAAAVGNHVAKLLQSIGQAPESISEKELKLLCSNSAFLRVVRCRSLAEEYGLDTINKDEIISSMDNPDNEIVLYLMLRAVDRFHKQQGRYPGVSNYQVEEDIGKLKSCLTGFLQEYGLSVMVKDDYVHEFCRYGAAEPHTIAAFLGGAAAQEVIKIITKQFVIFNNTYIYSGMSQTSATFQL


Assays:
[1] = biological target: Nedd8 activating enzyme (NAE), heterodimer of APPBP1 and Uba3 (UniProt Q13564); assay: inhibition of thioester conjugate formation (SDS-PAGE, Western blot); 10, 20 and 50 µM peptide preincubated with 1 µM NAE, 1 mM ATP, 10 mM MgCl2, TBS, 1 hour, room temperature; then 5 µM HA-Nedd8 for 15 min; anti-HA blot; both purified
[2] = biological target: Nedd8 activating enzyme (NAE), heterodimer of APPBP1 and Uba3 (UniProt Q13564); assay: thioester conjugate formation (SDS-PAGE, Western blot); 5 µM biotin labeled peptide with 1 µM NAE, 1 µM Ubc12 and 1 µM cullin, 1 mM ATP, 10 mM MgCl2, 50 µM DTT, TBS, 1 hour, room temperature; streptavidin-HRP blot; covalent conjugates; both purified
Ubc12 = biological target: T1, Ubc12; assay: as above

Binder | binding [2] | binding (Ubc12) | binding [1]
VLALRGG [peptide pN26 (70VLALRGG76)] | – | – | binds
VWLSYGG [peptide pN1 (70VWLSYGG76)] | – | – | binds
VMLFYGG [peptide pN7 (70VMLFYGG76)] | – | – | binds

Second part, led by results:

binding [2] | binding (Ubc12) | Binder | binding [1]
binds | – | VLALRGG (biotin (NHS-LC-LC-biotin) on the N-terminal amino group) [biotin-pN26 (VLALRGG)] | –
binds | no binding (tested: 5 µM) | VWLSYGG (biotin (NHS-LC-LC-biotin) on the N-terminal amino group) [biotin-pN1 (VWLSYGG)] | –
binds | binds weakly | VMLFYGG (biotin (NHS-LC-LC-biotin) on the N-terminal amino group) [biotin-pN7 (VMLFYGG)] | –

— article PMC3731359 (PLoS ONE, 2013)
